Laboratory results: PubChem BioAssay AID504834 (National Center for Advancing Translational Sciences (NCATS), 2011)
In all, about 320,000 compounds went through this assay and about 22,000 (6.9%) were called active. The inconclusive results got no clear call from the source; some entries with a clear call stand among them for comparison. The call rests on the fitted dose curve; in most records, active means well fitted inhibition curve with a large enough effect; inconclusive means small, poorly fitted or top-dose-only effect, or another doubt; inactive means no such curve, though single readings can be large or run the other way. Potencies beside an inconclusive call are fits to weak or partial responses and may not hold up.

Test: Primary qHTS for delayed death inhibitors of the malarial parasite plastid, 96 hour incubation
Details: P. falciparum luciferase reporter growth; series mostly up to 28.7 µM
In short: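 Two parasite generations (96 h, 37 C, 5% CO2) of compound exposure in infected erythrocytes (0.05% parasitemia, 2% hematocrit). Luciferase-reporter P. falciparum; decreased luminescence indicates inhibited growth, aimed at apicoplast-acting delayed death.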
Potency means the concentration at half of the fitted maximal effect.

Structure (SMILES) | Potency
Cc1nn(C(C)C(=O)N2CCCC2)c(=O)c2nn(-c3ccccc3)c(C)c12 (configuration not stated) | inconclusive: 5.22 µM [inhibitor, partial curve]
COc1cccc(C(=O)N/N=C/c2ccc(OC)c(COc3ccccc3C(N)=O)c2)c1 | inconclusive: 11.7 µM [inhibitor, single point]
COc1ccc(OC)c(S(=O)(=O)N2Cc3ccccc3CC2C(=O)Nc2nccs2)c1 (configuration not stated) | inactive
CCc1ccc(N/C(N)=N/c2nc(CSc3ccccn3)cc(=O)[nH]2)cc1 | inconclusive: 0.0657 µM [inhibitor, full curve, poor fit]
COc1ccccc1N1CCN(CC(=O)N2CCCC2)CC1 | inconclusive: 2.33 µM [inhibitor, full curve, poor fit]
O=C(CCN1C(=O)/C(=C/c2ccccc2Cl)SC1=S)N1CCOCC1 | inconclusive: 0.928 µM [inhibitor, full curve]
CN1CCN(CC(=O)c2ccccc2F)CC1 | inactive
COc1ccc(NC(=S)NC(NC(C)=O)C(Cl)(Cl)Cl)c([N+](=O)[O-])c1 (configuration not stated) | inconclusive: 18.5 µM [inhibitor, single point]
O=C1NC(=O)C(=Cc2ccc3c(c2)OCO3)C(=O)N1 | active: 9.28 µM
OC(COC(c1ccccc1)c1ccccc1)CN1CCN(c2ccccn2)CC1 (configuration not stated) | inconclusive: 5.86 µM [inhibitor, single point]
O=C1C=C(c2ccc3ncccc3c2)C[C@@H](c2ccc(Cl)cc2)C1 | inconclusive: 11.7 µM [inhibitor, single point]
CSC(=NNC(=O)c1ccc(O)cc1)SC | inactive
Cc1cccc(OCCCN2CCOCC2)c1C | active: 6.57 µM
COc1ccc(/C=N/NC(=O)c2ccc(F)cc2)cc1CN1CCc2cc(OC)c(OC)cc2C1C (configuration not stated) | inactive
O=C(Nc1ccccc1)N(Cc1ccc2c(c1)OCO2)Cc1nc2ccccc2c(=O)[nH]1 | inconclusive: 18.5 µM [inhibitor, single point]
Cn1ccnc1Sc1cc(NCCCO)c([N+](=O)[O-])c2nonc12 | inactive
O=C(Nc1nc2ccccc2n1CCN1CCOCC1)c1ccc(Cn2cc([N+](=O)[O-])cn2)o1 | inconclusive: 4.65 µM [inhibitor, partial curve]
NS(=O)(=O)c1ccc(CCNc2cc(=O)n(Cc3ccc(F)cc3)c(=O)[nH]2)cc1 | inconclusive: 9.28 µM [inhibitor, partial curve, poor fit]
Nc1ccccc1C(=O)OCC(=O)c1ccc2c(c1)OCCO2 | inactive
CCOc1ccccc1N1CCN(C(=O)c2cc(S(=O)(=O)N(C)C)ccc2N2CCCC2)CC1 | inconclusive: 4.15 µM [inhibitor, partial curve]
COc1ccc2c(C(=O)c3ccc(C)cc3)n(Cc3ccc(C(N)=O)cc3)[n+]([O-])c2c1 | inconclusive: 18.5 µM [inhibitor, single point]

No new results follow: an excerpt of the list.
Structure (SMILES) | Potency
COc1ccc(/C=N/NC(=O)c2ccc(F)cc2)cc1CN1CCc2cc(OC)c(OC)cc2C1C (configuration not stated) | inactive
O=C(Nc1ccccc1)N(Cc1ccc2c(c1)OCO2)Cc1nc2ccccc2c(=O)[nH]1 | inconclusive: 18.5 µM [inhibitor, single point]

The results go on:

Structure (SMILES) | Potency
COc1cc(C(CCN2CCOCC2)c2c(OC)cc(OC)c3c2OC(=O)CC3c2ccc(N(C)C)cc2)cc(OC)c1OC (configuration not stated) | inconclusive: 14.7 µM [inhibitor, single point]
CC1(C)CN=C(Nc2ccc(F)c(Cl)c2)S1 | inconclusive: 9.28 µM [inhibitor, partial curve, poor fit]
CCCc1ccc(OCC(O)CN2CCc3ccccc3C2)cc1 (configuration not stated) | inactive
COc1ccc(NC(=O)CSCC(=O)Nc2cccc3ncccc23)cc1 | inactive
CCn1cc(CN(C)S(=O)(=O)c2ccc3ccccc3c2)c(C)n1 | inactive
O=C(NCCc1ccccn1)c1cc(-c2ccc(Cl)cc2)nc2ccccc12 | inconclusive: 11.7 µM [inhibitor, single point]
Cc1cccc(N2CCN(CCCNC(=O)C3CCCN(c4ncnc5c4nc4n5CCCCC4)C3)CC2C)c1 (configuration not stated) | inconclusive: 5.86 µM [inhibitor, partial curve, poor fit]
C=CCNc1nc(C(=O)OCC(=O)c2ccc(C)c([N+](=O)[O-])c2)cs1 | inactive
COC(=O)C(C)N(C(=O)c1cccc(Cl)c1)c1c(C)cccc1C (configuration not stated) | inconclusive: 9.28 µM [inhibitor, single point]
CCOC(=O)C1CCN(C(=O)Cn2c(=O)c3cccn3c3cccnc32)CC1 | inactive
CCOc1ccc(OCC(=O)OCC(=O)N(CC(C)C)c2c(N)n(Cc3ccccc3)c(=O)[nH]c2=O)cc1 | inactive
O=C(O)c1ccc(CNC(=O)c2ccc3c(c2)OCCO3)cc1 | inconclusive: 13.1 µM [inhibitor, partial curve, poor fit]
C#CCOC(=O)C(NC(=O)c1ccccc1)=C1CCCCC1 | inconclusive: 0.0033 µM [inhibitor, full curve, poor fit]
O=C(CSC1CS(=O)(=O)c2cc([N+](=O)[O-])ccc21)NNC(=O)c1ccccc1 (configuration not stated) | inconclusive: 10.4 µM [inhibitor, partial curve, poor fit]
COCC(=O)Nc1nnc(SCC(=O)N2CCCCC2)s1 | inconclusive: 0.294 µM [inhibitor, partial curve, poor fit]
CCN(c1ccccc1)S(=O)(=O)c1ccc(OCC(=O)N2CCCC2)cc1 | inconclusive: 11.7 µM [inhibitor, single point]
CCOc1ccccc1NC(=O)COC(=O)c1ccc(S(=O)(=O)N2CCCC2)cc1 | inconclusive: 18.5 µM [inhibitor, single point]
CCC(C)[C@H](NC(=O)N1CCn2c1nc1ccccc12)C(=O)NCCc1ccc(OC)c(OC)c1 (some centres not stated) | inconclusive: 13.1 µM [inhibitor, partial curve]
O=C1CC(C(=O)Nc2nccs2)C(c2ccccc2)O1 (configuration not stated) | inconclusive: 18.5 µM [inhibitor, single point]
CCCC(=O)NC(Nc1cc(C(F)(F)F)ccc1Cl)C(Cl)(Cl)Cl (configuration not stated) | inconclusive: 4.65 µM [inhibitor, partial curve, poor fit]
COc1ccc(C2=NN(C(=O)/C=C/c3ccccc3)C(c3ccccc3)C2)c(OC(C)=O)c1 (configuration not stated) | inconclusive: 3.7 µM [inhibitor, single point]
